Laboratory results published in PubChem BioAssay AID2662 (National Center for Advancing Translational Sciences (NCATS), 2010).
Out of some 290,000 compounds screened, about 110 (0.038%) were called active. The shares of active, inactive and inconclusive entries below differ from those in the screen. Calls come from the whole dose curve; as a rule, active = well fitted inhibition curve with a large enough effect in the polarisation, with a control signal flat (not every such curve was filed as active); inconclusive = small, poorly fitted or top-dose-only effect, or effect the other way, or a change in a side signal; inactive = no such curve, though single readings can be large or run the other way; the % refers to the polarisation. Potencies of inconclusive entries are doubtful fits and often do not repeat. A note “side channel” means that the fit belongs to a control or component signal, not to the main read-out.

Sequences of proteins named here, by UniProt entry; tags and fusion partners are left off.
UniProt Q03164, whole entry, looked up: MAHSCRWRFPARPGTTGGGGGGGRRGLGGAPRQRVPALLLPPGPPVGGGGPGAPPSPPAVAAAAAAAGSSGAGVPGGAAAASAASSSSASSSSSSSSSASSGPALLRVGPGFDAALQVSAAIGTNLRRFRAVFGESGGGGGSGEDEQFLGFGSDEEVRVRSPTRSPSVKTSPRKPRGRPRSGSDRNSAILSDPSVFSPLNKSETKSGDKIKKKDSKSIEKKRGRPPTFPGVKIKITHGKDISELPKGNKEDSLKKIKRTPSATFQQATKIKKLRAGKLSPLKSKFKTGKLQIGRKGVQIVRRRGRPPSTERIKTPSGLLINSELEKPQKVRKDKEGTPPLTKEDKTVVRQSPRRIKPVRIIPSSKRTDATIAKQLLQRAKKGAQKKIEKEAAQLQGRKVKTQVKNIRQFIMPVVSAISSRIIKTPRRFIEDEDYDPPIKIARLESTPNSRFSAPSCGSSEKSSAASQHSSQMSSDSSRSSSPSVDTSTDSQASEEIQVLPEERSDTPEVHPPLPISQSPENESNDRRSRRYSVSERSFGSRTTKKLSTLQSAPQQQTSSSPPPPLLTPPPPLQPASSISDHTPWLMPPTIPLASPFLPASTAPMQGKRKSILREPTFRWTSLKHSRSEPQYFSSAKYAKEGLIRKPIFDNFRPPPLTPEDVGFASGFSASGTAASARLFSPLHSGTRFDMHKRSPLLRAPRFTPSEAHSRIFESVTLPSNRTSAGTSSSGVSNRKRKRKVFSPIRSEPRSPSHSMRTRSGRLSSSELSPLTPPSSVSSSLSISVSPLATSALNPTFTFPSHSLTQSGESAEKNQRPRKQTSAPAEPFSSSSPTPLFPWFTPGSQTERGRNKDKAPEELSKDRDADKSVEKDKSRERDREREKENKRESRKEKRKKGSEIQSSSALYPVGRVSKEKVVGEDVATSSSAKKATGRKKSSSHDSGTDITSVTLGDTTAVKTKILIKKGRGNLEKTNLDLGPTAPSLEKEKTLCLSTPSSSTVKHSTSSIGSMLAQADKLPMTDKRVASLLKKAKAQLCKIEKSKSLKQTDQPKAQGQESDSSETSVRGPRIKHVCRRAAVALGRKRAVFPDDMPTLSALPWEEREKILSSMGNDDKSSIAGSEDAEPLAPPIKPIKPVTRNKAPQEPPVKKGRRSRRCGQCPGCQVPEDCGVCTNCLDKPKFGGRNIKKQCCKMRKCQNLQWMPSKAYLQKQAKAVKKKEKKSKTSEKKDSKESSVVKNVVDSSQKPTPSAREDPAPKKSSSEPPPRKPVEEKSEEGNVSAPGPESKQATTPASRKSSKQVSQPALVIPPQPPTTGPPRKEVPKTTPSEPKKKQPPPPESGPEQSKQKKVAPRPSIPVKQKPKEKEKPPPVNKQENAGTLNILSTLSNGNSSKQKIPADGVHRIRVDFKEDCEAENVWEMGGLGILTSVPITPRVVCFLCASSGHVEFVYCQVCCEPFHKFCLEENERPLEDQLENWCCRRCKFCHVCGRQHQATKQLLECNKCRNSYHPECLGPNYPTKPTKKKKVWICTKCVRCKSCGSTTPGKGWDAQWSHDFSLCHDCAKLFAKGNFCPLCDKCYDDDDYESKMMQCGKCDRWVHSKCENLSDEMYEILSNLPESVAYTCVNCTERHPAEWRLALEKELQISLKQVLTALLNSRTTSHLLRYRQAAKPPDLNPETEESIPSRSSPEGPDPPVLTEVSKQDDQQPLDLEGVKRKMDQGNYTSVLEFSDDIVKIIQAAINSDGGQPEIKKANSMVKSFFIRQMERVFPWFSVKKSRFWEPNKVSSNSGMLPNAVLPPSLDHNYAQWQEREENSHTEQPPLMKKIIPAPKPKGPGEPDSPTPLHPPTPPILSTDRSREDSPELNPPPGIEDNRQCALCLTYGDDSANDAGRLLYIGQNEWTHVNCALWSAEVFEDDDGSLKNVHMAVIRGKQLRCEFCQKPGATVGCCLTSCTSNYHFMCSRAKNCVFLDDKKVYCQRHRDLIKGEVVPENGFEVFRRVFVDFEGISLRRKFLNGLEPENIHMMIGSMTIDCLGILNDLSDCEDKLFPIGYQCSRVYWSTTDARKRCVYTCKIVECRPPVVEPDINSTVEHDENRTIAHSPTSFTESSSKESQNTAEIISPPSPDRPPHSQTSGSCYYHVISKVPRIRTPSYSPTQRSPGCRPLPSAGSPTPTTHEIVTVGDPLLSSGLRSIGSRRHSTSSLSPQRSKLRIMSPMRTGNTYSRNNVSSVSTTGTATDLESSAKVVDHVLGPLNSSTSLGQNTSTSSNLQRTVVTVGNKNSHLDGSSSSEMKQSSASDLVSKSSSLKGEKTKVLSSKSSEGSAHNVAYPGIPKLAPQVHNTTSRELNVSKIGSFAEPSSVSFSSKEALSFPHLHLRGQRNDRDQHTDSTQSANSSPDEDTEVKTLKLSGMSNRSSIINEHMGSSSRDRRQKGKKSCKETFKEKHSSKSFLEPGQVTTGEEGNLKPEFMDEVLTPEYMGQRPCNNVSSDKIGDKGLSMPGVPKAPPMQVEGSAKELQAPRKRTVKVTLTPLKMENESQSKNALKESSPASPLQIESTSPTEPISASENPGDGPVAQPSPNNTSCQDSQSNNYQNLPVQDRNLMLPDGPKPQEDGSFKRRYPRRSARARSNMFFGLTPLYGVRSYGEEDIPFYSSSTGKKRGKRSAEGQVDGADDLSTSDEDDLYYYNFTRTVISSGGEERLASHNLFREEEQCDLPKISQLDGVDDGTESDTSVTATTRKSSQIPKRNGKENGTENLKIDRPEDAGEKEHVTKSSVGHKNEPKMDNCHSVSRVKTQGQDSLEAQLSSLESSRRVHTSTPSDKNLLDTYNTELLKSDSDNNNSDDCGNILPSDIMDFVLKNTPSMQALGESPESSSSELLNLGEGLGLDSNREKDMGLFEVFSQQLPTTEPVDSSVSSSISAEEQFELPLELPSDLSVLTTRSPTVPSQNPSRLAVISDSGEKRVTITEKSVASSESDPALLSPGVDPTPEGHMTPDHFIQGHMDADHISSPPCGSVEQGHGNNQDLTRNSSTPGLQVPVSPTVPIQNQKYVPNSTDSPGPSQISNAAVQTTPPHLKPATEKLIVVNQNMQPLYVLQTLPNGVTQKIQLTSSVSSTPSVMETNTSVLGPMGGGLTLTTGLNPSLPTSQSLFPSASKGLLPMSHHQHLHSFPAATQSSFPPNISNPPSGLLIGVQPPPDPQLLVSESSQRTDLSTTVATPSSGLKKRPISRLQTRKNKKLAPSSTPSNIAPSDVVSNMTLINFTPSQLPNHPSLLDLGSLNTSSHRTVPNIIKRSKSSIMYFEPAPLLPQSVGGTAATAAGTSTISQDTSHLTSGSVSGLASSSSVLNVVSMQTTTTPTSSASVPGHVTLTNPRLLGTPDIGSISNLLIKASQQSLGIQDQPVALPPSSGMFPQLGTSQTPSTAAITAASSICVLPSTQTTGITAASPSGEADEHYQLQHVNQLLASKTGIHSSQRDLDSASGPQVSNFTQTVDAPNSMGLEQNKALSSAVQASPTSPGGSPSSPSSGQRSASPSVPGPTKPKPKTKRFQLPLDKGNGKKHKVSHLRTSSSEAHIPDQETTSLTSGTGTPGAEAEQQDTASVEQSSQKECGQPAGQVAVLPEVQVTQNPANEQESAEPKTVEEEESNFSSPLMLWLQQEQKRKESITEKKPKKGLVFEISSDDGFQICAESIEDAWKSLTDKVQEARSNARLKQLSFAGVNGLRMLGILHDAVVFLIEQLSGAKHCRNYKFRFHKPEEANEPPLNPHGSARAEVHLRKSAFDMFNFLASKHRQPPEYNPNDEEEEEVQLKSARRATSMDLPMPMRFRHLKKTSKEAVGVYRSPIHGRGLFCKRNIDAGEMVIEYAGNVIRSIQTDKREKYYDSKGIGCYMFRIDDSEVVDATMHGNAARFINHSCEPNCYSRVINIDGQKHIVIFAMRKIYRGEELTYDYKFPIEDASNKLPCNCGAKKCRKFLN

biological target: Histone-lysine N-methyltransferase 2A (Homo sapiens) (UniProt Q03164); experiment: qHTS Fluorescence Polarization Assay for Inhibitors of MLL CXXC domain - DNA interaction; settings: MLL-CXXC / FITC-HOXA9 DNA fluorescence polarization; activity change, negative = inhibition: at 115 µM (top of the series)
In short: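 Purified MLL-CXXC (added from a 7 uM solution) was preincubated 5 min at ambient with pinned compounds in 50 mM Tris-HCl pH 7.5, 50 mM NaCl, 1 mM DTT, 0.05% BSA. Fluorescein-labeled HOX-A9 DNA (50 nM solution) followed, 30 min, then polarization read.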
Potency is the fitted concentration of half-maximal effect.

| SMILES | Potency | activity change, negative = inhibition |
| --- | --- | --- |
| COc1ccc(C(=O)NCC(=O)Nc2cccc(S(=O)(=O)NCc3ccco3)c2)cc1OC | inconclusive: 20 µM [fluorescent, side channel, partial curve] | – |
| Cc1ccccc1Nc1cc2ccccc2c(=O)[nH]1 | inconclusive: 63.1 µM [inhibitor, single point] | – |
| COCCn1c(SCCN2CCOCC2)nc2c1c(=O)[nH]c(=O)n2C | – | inactive: -0.23% |
| Cc1ccc(-c2csc(NC(=O)CN3CCOCC3)n2)cc1C | – | inactive: -1.56% |
| COc1ccc(S(=O)(=O)N2CCCc3ccccc32)cc1[N+](=O)[O-] | inconclusive: 14.1 µM [fluorescent, side channel, single point] | – |
| COc1cc(/C=C2/SC(=S)N(Cc3ccccc3)C2=O)cc(OC)c1O | inconclusive: 28.2 µM [fluorescent, side channel, partial curve] | – |
| O=C(NC(=S)Nc1cccc([N+](=O)[O-])c1)c1ccco1 | inconclusive: 70.8 µM [fluorescent, side channel, single point] | – |
| COc1ccccc1-n1c(SCC(=O)N2CCOCC2)nc(O)cc1=O | inconclusive: 14.1 µM [fluorescent, side channel, single point] | – |
| Cc1cc2nc3s/c(=C/c4ccc(-c5ccccc5C(=O)O)o4)c(=O)n3c2cc1C | inconclusive: 70.8 µM [fluorescent, single point] | – |
| CCn1cc(C(=O)NCc2ccco2)c(=O)c2cc(F)c(N3CCN(C(=O)c4ccco4)CC3)cc21 | – | inactive: 0.546% |
| O=S(=O)(CCSc1nc2ccccc2s1)c1nc2ccccc2s1 | inconclusive: 44.7 µM [fluorescent, side channel, partial curve] | – |
| CC1(C)CC(=O)C2=C(C1)Nc1ccccc1S2 | inconclusive: 89.1 µM [fluorescent, side channel, single point] | – |
| Cc1ccc2nc(-c3ccc(NC(=S)NC4CC(C)(C)NC(C)(C)C4)cc3)sc2c1 | inconclusive: 35.5 µM [quencher, partial curve] | – |
| Cc1cc(C)n(-c2nc3ccccc3c(=O)n2OCC(=O)N(C)C)n1 | – | inactive: 3.36% |
| COc1ccccc1N(Cc1ccccc1)S(=O)(=O)c1cccc(C(=O)Nc2cc(C)ccn2)c1 | inconclusive: 8.91 µM [fluorescent, side channel, partial curve] | – |
| CCOC(=O)N1CCN(S(=O)(=O)c2ccc(C(=O)N(CCN(CC)CC)c3nc4c(C)cccc4s3)cc2)CC1 | inconclusive: 8.91 µM [fluorescent, side channel, single point] | – |
| O=C(Nc1ccnn1C1CCN(C(=O)CCc2ccc(F)cc2)CC1)C1CCOC1 (stereo not given) | inconclusive: 11.2 µM [fluorescent, side channel, single point] | – |
| CCN(Cc1ccccc1)c1ccc(/C=C(\C#N)c2ccccn2)cc1 | inconclusive: 28.2 µM [fluorescent, side channel, partial curve] | – |
| Brc1ccc2c(c1)C(c1cccs1)=NNC(c1cccnc1)=N2 | – | inactive: 0.608% |
| CCOc1ccc2oc(C(=O)NCc3nc4ccccc4[nH]3)c(C)c2c1 | – | inactive: -0.808% |

| SMILES | Potency | activity change, negative = inhibition |
| --- | --- | --- |
| O=C(O)CCc1ccc(-c2ccc(Br)cc2)n1-c1cccc(O)c1 | – | inconclusive: 13.7% [phenotype inactive] |
| CC(C)N=C(Nc1cccnc1)c1ccccc1 | inconclusive: 35.5 µM [fluorescent, side channel, single point] | – |
| COC(=O)C1=C(C)N(Cc2ccccc2)C(=NCCc2cccnc2)N[C@H]1c1ccc(Br)cc1 | inconclusive: 11.2 µM [quencher, side channel, partial curve] | – |
| CSc1cc(-c2ccccc2)[nH]c(=O)c1C#N | inconclusive: 56.2 µM [fluorescent, side channel, single point] | – |
| CCN(CC)S(=O)(=O)c1ccc(C(=O)OCCN2C(=O)c3cccc4c(N5CCOCC5)ccc(c34)C2=O)cc1 | inconclusive: 35.5 µM [fluorescent, side channel, partial curve] | – |
| CCN(CC(=O)NC1CCS(=O)(=O)C1)S(=O)(=O)c1ccccc1Cl (stereo not given) | inconclusive: 8.91 µM [quencher, side channel, single point] | – |
| Oc1ccc2ccccc2c1CN1CCN(C/C=C/c2ccccc2)CC1 | – | inactive: 31.9% |
| COc1ccc(N2CCc3c(C)nc4c(OC)cc(OC)cc4c32)cc1 | inconclusive: 35.5 µM [quencher, side channel, single point] | – |
| CCC(C)Cn1c(O)cc2nn(-c3nc4ccccc4s3)c(=O)c-2c1C (stereo not given) | inconclusive: 39.8 µM [fluorescent, side channel, partial curve] | – |
| CC(C)CN(C[C@@H](OP(=O)(O)O)[C@H](Cc1ccccc1)NC(=O)O[C@@H]1CCOC1)S(=O)(=O)c1ccc(N)cc1 | – | inactive: -6.42% |
| COc1ccc(-n2c(C)c(C)c3c(NCCCN(C)C)ncnc32)cc1 | inconclusive: 39.8 µM [quencher, side channel, single point] | – |
| CCCCn1c(NC(=O)c2ccccc2)c(C#N)c2nc3ccccc3nc21 | inconclusive: 89.1 µM [inhibitor, single point] | – |
| COc1ccc(C2CC(C(F)(F)F)n3ncc(C(=O)NCC4CCCO4)c3N2)cc1OC (stereo not given) | inconclusive: 15.8 µM [inhibitor, single point] | – |
| COc1ccc(CCC(C)NCc2ccc(Cl)c(Cl)c2)cc1 (stereo not given) | inconclusive: 39.8 µM [quencher, side channel, single point] | – |
| CCOc1ccccc1NC(=S)N1CCN(c2ccc(O)cc2)CC1 | inconclusive: 70.8 µM [inhibitor, single point] | – |
| CCN(CC)c1ccc(/C=C2/SC(=O)N(C(C)C)C2=O)o1 | inconclusive: 63.1 µM [fluorescent, side channel, single point] | – |
| CC(=C/C(=O)O)/C=C/c1ccc([N+](=O)[O-])cc1 | inconclusive: 89.1 µM [fluorescent, side channel, single point] | – |
| COc1ccccc1NS(=O)(=O)c1cc(NC(=O)c2cc[n+]([O-])cc2)ccc1N1CCCC1 | inconclusive: 2 µM [fluorescent, side channel, full curve] | – |
| Cn1c(=O)c2[nH]c(N=Nc3ccc(N)cc3N)nc2n(C)c1=O | inconclusive: 56.2 µM [quencher, side channel, single point] | – |
| Cn1cc(/C=C2\SC(=S)N(NC(=O)c3ccccc3)C2=O)c2ccccc21 | inconclusive: 50.1 µM [fluorescent, side channel, partial curve] | – |

For convenience, some entries already given.

| SMILES | Potency | activity change, negative = inhibition |
| --- | --- | --- |
| COc1ccc(-n2c(C)c(C)c3c(NCCCN(C)C)ncnc32)cc1 | inconclusive: 39.8 µM [quencher, side channel, single point] | – |
| CCCCn1c(NC(=O)c2ccccc2)c(C#N)c2nc3ccccc3nc21 | inconclusive: 89.1 µM [inhibitor, single point] | – |

Next part.

| SMILES | Potency | activity change, negative = inhibition |
| --- | --- | --- |
| CS(=O)(=O)c1ccccc1C(=O)Nc1ccc(-c2nc3ccccc3o2)cc1 | inconclusive: 7.08 µM [quencher, side channel, full curve, poor fit] | – |
| CCOC(=O)Nc1cc(=O)c2ccccc2o1 | – | inactive: 9.21% |
| COc1cc2c(cc1NC(=O)COC(=O)[C@@H](NC(=O)c1ccccc1F)C(C)C)oc1ccccc12 | – | inactive: -4.25% |
| COc1ccc(C(=O)Nc2cc(OC)cc3cccnc23)cc1 | inconclusive: 70.8 µM [fluorescent, side channel, single point] | – |
| COc1cc([N+](=O)[O-])ccc1NC(=O)Nn1cnnc1 | inconclusive: 14.1 µM [quencher, side channel, single point] | – |
| Cc1ccccc1C(=O)Nc1cccc(N)c1 | – | inactive: -0.517% |
| Cc1[nH]c2ccccc2c1C(=O)CN1CCCCC1CCO (stereo not given) | – | inactive: 14.2% |
| CCOC(=O)C1CCN(C(=O)COc2ccc([N+](=O)[O-])cc2)CC1 | inconclusive: 8.91 µM [inhibitor, single point] | – |
| Cc1onc(-c2ccccc2)c1C(=O)Nc1ccc(Br)cc1Cl | inconclusive: 14.1 µM [fluorescent, single point] | – |
| CN(C)c1ccc(NC(N)=S)cc1 | inconclusive: 44.7 µM [fluorescent, side channel, single point] | – |
| COc1cc(N2CCCC2)c(OC)cc1/C=C(/C#N)c1cccc(Br)c1 | inconclusive: 35.5 µM [fluorescent, single point] | – |
| CC(NC(=O)c1cc(-c2ccc3c(c2)OCO3)nc2ccccc12)C(C)(C)C (stereo not given) | – | inactive: 2.87% |
| O=C(Nc1ccc(F)cc1)Nc1ccc(N2CCOCC2)c2nonc12 | inconclusive: 70.8 µM [fluorescent, side channel, single point] | – |
| O=C(OCCN1C(=O)c2cccc3c(N4CCOCC4)ccc(c23)C1=O)c1ccc(Cl)cc1Cl | inconclusive: 25.1 µM [fluorescent, side channel, partial curve] | – |
| CC(=O)Oc1ccc(OC(C)=O)c(S(=O)(=O)c2ccc(C)c(C)c2)c1 | inconclusive: 70.8 µM [inhibitor, single point] | – |
| CN(c1ccccc1)S(=O)(=O)c1ccc(C(=O)N2CCCC(C(F)(F)F)C2)cc1 (stereo not given) | inconclusive: 11.2 µM [quencher, side channel, single point] | – |
| CCn1cc(C=C2C(=O)c3ccccc3C2=O)c2ccccc21 | inconclusive: 1.41 µM [fluorescent, side channel, full curve, poor fit] | – |
| O=C(Cc1ccccc1Cl)NC1(O)C(=O)c2ccccc2C1=O | inconclusive: 31.6 µM [inhibitor, single point] | – |
| Cc1cc(SCC(=O)c2cc3ccccc3o2)nc2ccccc12 | inconclusive: 31.6 µM [fluorescent, single point] | – |
| CCN(CC)CCCC(C)NC(=O)c1c(NC(=O)c2ccccc2)sc2c1CCCC2 (stereo not given) | inconclusive: 63.1 µM [quencher, side channel, single point] | – |

Individual results from above:
`COC(=O)C1=C(C)N(Cc2ccccc2)C(=NCCc2cccnc2)N[C@H]1c1ccc(Br)cc1` – Potency: inconclusive: 11.2 µM [quencher, side channel, partial curve]
`CC(=O)Oc1ccc(OC(C)=O)c(S(=O)(=O)c2ccc(C)c(C)c2)c1` – Potency: inconclusive: 70.8 µM [inhibitor, single point]
